Laboratory results reported in PubChem BioAssay AID485353 (National Center for Advancing Translational Sciences (NCATS), 2010).
Hit rate of the full screen: of about 330,000 compounds, about 610 (0.18%) were called active. This list was built around the results that the source calls inconclusive (neither active nor inactive); the mix of calls is not that of the screen. Calls come from the whole dose curve. A potency beside an inconclusive call is a rough fit, not a confirmed value.

experiment: qHTS of Yeast-based Assay for SARS-CoV PLP; note: nearly all actives have a fitted effect of over 55% in size; for activity, positive = growth rescue: 0% is about no effect; conditions: S. cerevisiae expressing SARS-CoV PLpro; Potency: growth rescue; activity, positive = growth rescue: at 32.9 µM (top of the series)
Potency is the fitted concentration of half-maximal effect.

| SMILES | activity, positive = growth rescue | Potency |
| --- | --- | --- |
| COC(=O)c1ccc(S(=O)(=O)N2CCCN(Cc3ccc(F)cc3)CC2)n1C | inactive: -1.04% |  |
| O=c1c2ccccc2c(-c2ccccc2)nn1-c1ccc(Cl)c(Cl)c1 |  | inconclusive: 4.47 µM [activator, single point] |
| CCc1nnc(NC(=O)c2ccc(S(=O)(=O)N(CC(C)C)CC(C)C)cc2)o1 |  | inconclusive: 20 µM [activator, single point] |
| CCOC(=O)N1CCC(NC(=O)c2cc3c(-c4ccc(OC)c(OC)c4)nn(C)c3s2)CC1 | inactive: -7.83% |  |
| Cc1cccc(C)c1Nc1nnc(SCC(=O)c2ccc(Br)s2)s1 |  | inconclusive: 20 µM [activator, single point] |
| O=C(NC1CC1)c1ccc2c(c1)S(=O)(=O)c1cc(Cl)ccc1C2=O | inactive: -5.66% |  |
| CC(Oc1ccccc1)C(=O)Nc1nnc(C2CCCCC2)s1 (stereo not given) | inactive: 0.429% |  |
| CCOc1c(Cl)cc(CNc2ccc(S(N)(=O)=O)cc2)cc1OC |  | inconclusive: 4.47 µM [activator, single point] |
| COc1ccc(C(=O)NCC(=O)N2CCN(c3ncccn3)CC2)cc1OC | inactive: 1.95% |  |
| COc1cc(OC)cc(C(=O)NCC(=O)N2CCCCC2)c1 |  | inconclusive: 15.8 µM [activator, single point] |
| CCCc1cc(=O)[nH]c(SCC(=O)Nc2c(C)n(C)n(-c3ccccc3)c2=O)n1 | inactive: 16.8% |  |
| NC(=O)[C@H]1CC2(CC(c3cccc(NC(=O)COc4ccc(Cl)cc4)c3)=NO2)CN1C(=O)C(c1ccccc1)c1ccccc1 (stereo not given in full) | inactive: 1.74% |  |
| Cc1cc([N+](=O)[O-])ccc1NC(=O)C(C)NC1CCCCC1 (stereo not given) |  | inconclusive: 12.6 µM [activator, single point] |
| CCc1ccc(N(CC(=O)NC(C)C)C(=O)CCC(=O)Nc2nccs2)cc1 | inactive: -0.292% |  |
| O=C(O)C1Nc2c(O)cc(Cl)c([N+](=O)[O-])c2C2C=CCC12 (stereo not given) |  | inconclusive: 14.1 µM [activator, single point] |
| C#CCOCCOCCOCCNc1nc(N2CCN(C(=O)CCCCCCCCCCNC(=O)Cn3cc(CCCCCN)nn3)CC2)nc(N2CCN(C(=O)CCCCCCCCCCNC(=O)Cn3cc(CCCCCN)nn3)CC2)n1 |  | inconclusive: 17.8 µM [activator, single point] |
| CCn1nnnc1SCC(=O)Nc1ccc2c(c1)OCCO2 |  | inconclusive: 20 µM [activator, single point] |
| O=C(Nc1ccncc1)c1cc(S(=O)(=O)N2CCOCC2)ccc1Cl |  | inconclusive: 4.47 µM [activator, single point] |
| COc1ccc(CN2CCC(n3nccc3NC(=O)CCOc3ccccc3)CC2)cc1C |  | inconclusive: 4.47 µM [activator, single point] |
| Cc1cccc(NC(=O)c2cnccn2)c1 | inactive: -2.3% |  |
| CCCCn1c(N)c(N(CC)C(=O)c2cc(S(=O)(=O)N3CCCCCC3)ccc2OC)c(=O)[nH]c1=O |  | inconclusive: 20 µM [activator, single point] |
| Cc1cc(C)c(S(C)(=O)=O)c(NN)n1 | inactive: 0.0732% |  |
| CC(Oc1ccc(Cl)cc1Cl)c1ccn[nH]1 (stereo not given) | inactive: -2.62% |  |
| CCC(=O)N1c2ccc(S(=O)(=O)NCCc3ccccc3)cc2CC1C (stereo not given) |  | inconclusive: 22.4 µM [activator, single point] |

| SMILES | activity, positive = growth rescue | Potency |
| --- | --- | --- |
| CCOCCCNC(=S)Nc1ccc2nc(N3CCOCC3)cc(C)c2c1 | inactive: 0.82% |  |
| c1cc2c(cc1[C@H]1OC[C@H]3[C@@H]1CO[C@H]3c1ccc3c(c1)OCO3)OCO2 |  | inconclusive: 2 µM [activator, partial curve, poor fit] |
| O=C(Nc1nnc(-c2ccc(F)cc2)s1)c1c(F)cccc1Cl |  | inconclusive: 2.51 µM [activator, single point] |
| COc1ccc(C(=O)N(C)C(C)c2ccon2)cc1OC1CCN(C(C)C)CC1 (stereo not given) |  | inconclusive: 20 µM [activator, single point] |
| CC(C)(C)c1ccc(/C=N/OCC(=O)NCc2ccccc2)cc1 |  | inconclusive: 8.91 µM [activator, partial curve, poor fit] |
| COCn1c(-c2ccc(OC)cc2)nc2ccccc21 | inactive: -24% |  |
| O=C(N/N=C/c1c(O)ccc2ccccc12)c1cccc(C(F)(F)F)c1 |  | active: 3.98 µM |
| CC(C)COc1ccc2[nH]c3c(c2c1)CCCC3=O |  | inconclusive: 20 µM [activator, single point] |
| CC(C)(C)NC(=O)CN(C(=O)Cn1nnc(-c2ccccc2F)n1)c1cccc2c1CCCC2 |  | inconclusive: 3.98 µM [activator, single point] |
| CCCNC(=O)c1c(N)n(CC2CCCO2)c2nc3ccccc3nc12 (stereo not given) | inactive: -37.7% |  |
| CCCCCn1c(Sc2ccccc2)nc2c1c(=O)[nH]c(=O)n2C | inactive: 0.66% |  |
| CCOC(=O)/C=C/C(=O)N1CCN(C(=O)/C=C/C(=O)OCC)CC1 | inactive: -4.14% |  |
| Cn1c(CC(=O)Nc2ccccc2F)nnc1SCC(=O)N1CCOCC1 |  | inconclusive: 0.398 µM [activator, full curve, poor fit] |
| O=C(CS(=O)(=O)c1cn(CC(=O)N2CCOCC2)c2ccccc12)NCc1ccc(F)cc1 |  | inconclusive: 0.891 µM [activator, partial curve] |
| COc1ccc(C2=Nn3c(nnc3-c3ccccc3OC)SC2)cc1OC1CCOC1 (stereo not given) | inactive: -3.18% |  |
| Cc1ccccc1C(=O)NC(C(=O)Nc1nc2c(s1)CCCC2)C(C)C (stereo not given) |  | inconclusive: 1.58 µM [activator, full curve, poor fit] |
| Cc1cc(/C=C2/NC(=O)N(Cc3ccccc3F)C2=O)c(C)n1C(C)C |  | inconclusive: 4.47 µM [activator, single point] |
| CCOC(=O)c1c(C)c(C(=O)Nc2cc(F)ccc2F)c(C)n1C |  | inconclusive: 4.47 µM [activator, single point] |
| Cc1ccccc1NC(=S)NCc1ccc(Cl)cc1 |  | inconclusive: 20 µM [activator, single point] |
| COc1cccc(C(=O)NC(=S)Nc2ccccc2N2CCCCC2)c1 |  | inconclusive: 20 µM [activator, single point] |
| O=C(Oc1c(CN2CCOCC2)cc(Cl)c2cccnc12)c1cccs1 |  | inconclusive: 3.16 µM [activator, single point] |
| O=C(Nc1nc(-c2ccccc2)c(C(=O)c2ccccc2)s1)c1ccc(S(=O)(=O)N2CCCCC2)cc1 |  | inconclusive: 1.41 µM [activator, full curve, poor fit] |
| O=C(CN1c2cccc3cccc(c23)S1(=O)=O)NCCc1ccccc1 |  | inconclusive: 3.16 µM [activator, single point] |
| O=[N+]([O-])c1ccc(NC(=S)NCc2ccc(F)cc2)cc1 | inactive: -23.1% |  |

| SMILES | activity, positive = growth rescue | Potency |
| --- | --- | --- |
| COc1ccc(NS(=O)(=O)c2ccc(OCC(=O)N3CCN(C)CC3)cc2)cc1Cl |  | inconclusive: 2.51 µM [activator, single point] |
| CCOC(=O)N1CCN(Cc2ccc(OCC(O)CN3CCCCC3)cc2)CC1 (stereo not given) |  | inconclusive: 0.355 µM [activator, full curve, poor fit] |
| CC(C)(C)c1ccc(OCCN2CCCC2)cc1 |  | inconclusive: 3.98 µM [activator, partial curve] |
| COC(=O)c1c(NC(=O)COC(=O)c2ccccc2O)sc2c1CCCCC2 | inactive: 2.84% |  |
| Cn1c(=O)c2c(nc(N3CCN(c4ccccn4)CC3)n2Cc2ccccc2Cl)n(C)c1=O | inactive: 1.41% |  |
| CC(=O)Nc1cccc(NS(=O)(=O)c2cn(C)c(=O)n(C)c2=O)c1 |  | inconclusive: 20 µM [activator, single point] |
| CCCCN1CN(Cc2ccccc2)CNC1=S |  | inconclusive: 22.4 µM [activator, single point] |
| CCOC(=O)c1c(C)oc(NC(=O)CCl)c1C(=O)OCC |  | inconclusive: 11.2 µM [activator, single point] |
| Cc1ccc(NC(=O)COc2ccc(/C(N)=N/O)cc2)cc1C |  | inconclusive: 14.1 µM [activator, partial curve] |
| Cc1nc(N2CCN(c3ccc(Cl)cc3)CC2)[nH]c(=O)c1C |  | inconclusive: 3.98 µM [activator, single point] |
| COc1ccc(CCNC(=O)C2(C)CCC(=O)N2Cc2ccc(C)cc2)cc1OC (stereo not given) | inactive: 1.89% |  |
| Cc1ccc(C)c(NC(=O)CCCCCCCCCCC2COCCO2)c1 (stereo not given) |  | active: 11.2 µM |
| O=c1cc(-c2ccc([N+](=O)[O-])cc2)nc2cc(-c3ccc(Cl)cc3)[nH]n12 |  | inconclusive: 7.94 µM [activator, partial curve, poor fit] |
| NNC(=O)/C(=N/Nc1ccccc1)S(=O)(=O)c1ccc(Cl)cc1 |  | inconclusive: 20 µM [activator, single point] |
| O=C(CCl)Nc1ccccc1Sc1ccccc1 |  | active: 12.6 µM |
| COc1ccc(-c2cc(C(=O)N3CCN(Cc4ccc5c(c4)OCO5)CC3)on2)cc1OC |  | inconclusive: 17.8 µM [activator, single point] |
| CCOc1nc(C)ccc1-c1noc(-c2ccco2)n1 |  | inconclusive: 20 µM [activator, single point] |
| COc1cccc(/C=N/NC(=O)c2ccc([N+](=O)[O-])cc2Cl)c1O |  | inconclusive: 8.91 µM [activator, partial curve] |
| Cc1cccc(N2CCN(Cc3oc(CO)cc(=O)c3O)CC2)c1C |  | inconclusive: 22.4 µM [activator, single point] |
| CCS(=O)(=O)c1nc(S(=O)(=O)c2ccc(Cl)cc2)c(NCCCN2CCCC2=O)s1 | inactive: 2.71% |  |
| COc1ccc(NC(=O)Cc2coc3cc(C)c(C(C)C)cc23)cc1S(=O)(=O)N1CCOCC1 | inactive: -13.6% |  |
| COc1ccc(C(=O)NC(=S)N2CCC(C)CC2)cc1 |  | inconclusive: 12.6 µM [activator, partial curve] |

Given as labelled records: part of the list above
O=c1cc(-c2ccc([N+](=O)[O-])cc2)nc2cc(-c3ccc(Cl)cc3)[nH]n12
  Potency: inconclusive: 7.94 µM [activator, partial curve, poor fit]
NNC(=O)/C(=N/Nc1ccccc1)S(=O)(=O)c1ccc(Cl)cc1
  Potency: inconclusive: 20 µM [activator, single point]
O=C(CCl)Nc1ccccc1Sc1ccccc1
  Potency: active: 12.6 µM
COc1ccc(-c2cc(C(=O)N3CCN(Cc4ccc5c(c4)OCO5)CC3)on2)cc1OC
  Potency: inconclusive: 17.8 µM [activator, single point]
